Paper PMC10199079, “ERK and USP5 govern PD-1 homeostasis via deubiquitination to modulate tumor immunotherapy” (Nature Communications, 2023)
Like-named read-outs stand apart in the source and are kept apart here. No constants are given. Whether binding was seen depends on the method and setting. In cells and extracts the contact can be indirect. A yes stands for co-enrichment or nearness to the bait. Other partners may have been found.

The chains behind the UniProt entries cited, without tags or fusion partners. Residues count along the entry.
UniProt Q15116, residues 25-288: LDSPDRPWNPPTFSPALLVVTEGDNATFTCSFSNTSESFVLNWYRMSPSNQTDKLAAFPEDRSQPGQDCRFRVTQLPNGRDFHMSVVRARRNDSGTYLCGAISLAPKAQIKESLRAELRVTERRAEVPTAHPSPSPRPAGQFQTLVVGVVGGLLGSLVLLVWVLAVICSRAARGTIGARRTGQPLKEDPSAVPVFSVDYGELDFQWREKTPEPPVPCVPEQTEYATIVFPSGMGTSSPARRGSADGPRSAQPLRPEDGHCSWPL
UniProt P45974: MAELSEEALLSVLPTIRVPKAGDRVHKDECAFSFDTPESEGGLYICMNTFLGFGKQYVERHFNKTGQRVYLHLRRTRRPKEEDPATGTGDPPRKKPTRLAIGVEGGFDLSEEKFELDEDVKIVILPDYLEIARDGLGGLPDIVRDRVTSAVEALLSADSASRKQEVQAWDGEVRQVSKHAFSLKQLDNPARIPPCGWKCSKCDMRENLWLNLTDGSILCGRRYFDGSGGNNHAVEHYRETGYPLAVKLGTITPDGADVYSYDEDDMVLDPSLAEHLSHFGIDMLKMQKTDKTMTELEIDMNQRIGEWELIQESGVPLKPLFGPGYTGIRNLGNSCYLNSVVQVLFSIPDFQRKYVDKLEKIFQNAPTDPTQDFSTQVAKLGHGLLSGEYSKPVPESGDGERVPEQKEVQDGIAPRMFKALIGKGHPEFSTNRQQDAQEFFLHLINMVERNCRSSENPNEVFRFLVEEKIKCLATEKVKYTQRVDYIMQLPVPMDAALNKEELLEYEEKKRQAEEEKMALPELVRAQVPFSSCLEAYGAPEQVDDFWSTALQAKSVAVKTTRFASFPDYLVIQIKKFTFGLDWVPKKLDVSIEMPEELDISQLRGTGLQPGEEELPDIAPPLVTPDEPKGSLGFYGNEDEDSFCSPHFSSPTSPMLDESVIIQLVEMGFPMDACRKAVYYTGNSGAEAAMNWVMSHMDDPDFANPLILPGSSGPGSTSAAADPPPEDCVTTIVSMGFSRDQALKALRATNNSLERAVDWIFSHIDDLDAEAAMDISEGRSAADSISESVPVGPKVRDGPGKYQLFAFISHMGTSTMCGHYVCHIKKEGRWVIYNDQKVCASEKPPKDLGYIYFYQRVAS
UniProt Q8TD19: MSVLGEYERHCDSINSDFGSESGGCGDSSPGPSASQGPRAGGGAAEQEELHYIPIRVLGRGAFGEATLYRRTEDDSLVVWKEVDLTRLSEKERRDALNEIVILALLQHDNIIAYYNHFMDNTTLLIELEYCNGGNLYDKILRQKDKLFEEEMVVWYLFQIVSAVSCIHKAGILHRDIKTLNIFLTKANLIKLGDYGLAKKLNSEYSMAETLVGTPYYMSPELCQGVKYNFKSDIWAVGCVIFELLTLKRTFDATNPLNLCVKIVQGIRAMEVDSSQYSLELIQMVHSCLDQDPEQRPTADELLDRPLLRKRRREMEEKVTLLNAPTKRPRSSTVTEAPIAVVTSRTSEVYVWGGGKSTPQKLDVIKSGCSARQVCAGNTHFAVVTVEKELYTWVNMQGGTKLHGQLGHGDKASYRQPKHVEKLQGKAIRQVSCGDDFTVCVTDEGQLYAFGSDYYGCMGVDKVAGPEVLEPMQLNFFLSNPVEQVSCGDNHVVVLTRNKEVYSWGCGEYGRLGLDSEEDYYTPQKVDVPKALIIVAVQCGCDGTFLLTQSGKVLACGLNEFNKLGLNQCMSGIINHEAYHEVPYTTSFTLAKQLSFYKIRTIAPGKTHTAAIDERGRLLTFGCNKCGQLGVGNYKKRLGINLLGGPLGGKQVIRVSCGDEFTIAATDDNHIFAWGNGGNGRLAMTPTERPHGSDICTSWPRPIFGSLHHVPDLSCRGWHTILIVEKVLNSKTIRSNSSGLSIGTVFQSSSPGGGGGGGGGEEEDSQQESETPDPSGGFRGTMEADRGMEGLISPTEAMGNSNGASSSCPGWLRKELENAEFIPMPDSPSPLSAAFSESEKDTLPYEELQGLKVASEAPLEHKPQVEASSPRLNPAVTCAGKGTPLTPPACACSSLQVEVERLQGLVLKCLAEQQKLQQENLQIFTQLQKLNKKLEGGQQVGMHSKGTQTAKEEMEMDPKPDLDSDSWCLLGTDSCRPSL

How the values were obtained:
PD-1-cHA (human) [1] = target: PD-1-cHA (human) (UniProt Q15116); assay: affinity purification with mass spectrometry; anti-HA-agarose IP from lysates of HEK293T cells transfected with pcDNA3.1-PD-1-cHA or empty vector; EBC buffer (50 mM Tris pH 7.5, 0.5% NP40, 120 mM NaCl), 4 h at 4 °C, washed five times with NETN buffer
PD-1-cHA (human) [2] = target: PD-1-cHA (human) (UniProt Q15116); assay: as above; remark: listed apart in the source

Row | binding (PD-1-cHA (human) [2]) | Molecule | binding (PD-1-cHA (human) [1])
1 | – | ubiquitin-specific protease 5 (USP5), endogenous (from UniProt P45974 1-858) (enzyme) | binds
2 | – | NEK9 (from UniProt Q8TD19 1-979) (enzyme) | binds
3 | binds | KLHL22 (protein, UniProt Q53GT1 1-634) MAEEQEFTQLCKLPAQPSHPHCVNNTYRSAQHSQALLRGLLALRDSGILFDVVLVVEGRHIEAHRILLAASCDYFRGMFAGGLKEMEQEEVLIHGVSYNAMCQILHFIYTSELELSLSNVQETLVAACQLQIPEIIHFCCDFLMSWVDEENILDVYRLAELFDLSRLTEQLDTYILKNFVAFSRTDKYRQLPLEKVYSLLSSNRLEVSCETEVYEGALLYHYSLEQVQADQISLHEPPKLLETVRFPLMEAEVLQRLHDKLDPSPLRDTVASALMYHRNESLQPSLQSPQTELRSDFQCVVGFGGIHSTPSTVLSDQAKYLNPLLGEWKHFTASLAPRMSNQGIAVLNNFVYLIGGDNNVQGFRAESRCWRYDPRHNRWFQIQSLQQEHADLSVCVVGRYIYAVAGRDYHNDLNAVERYDPATNSWAYVAPLKREVYAHAGATLEGKMYITCGRRGEDYLKETHCYDPGSNTWHTLADGPVRRAWHGMATLLNKLYVIGGSNNDAGYRRDVHQVACYSCTSGQWSSVCPLPAGHGEPGIAVLDNRIYVLGGRSHNRGSRTGYVHIYDVEKDCWEEGPQLDNSISGLAACVLTLPRSLLLEPPRGTPDRSQADPDFASEVMSVSDWEEFDNSSED | –
4 | binds | USP15, endogenous (enzyme, UniProt Q9Y4E8 1-981) MAEGGAADLDTQRSDIATLLKTSLRKGDTWYLVDSRWFKQWKKYVGFDSWDKYQMGDQNVYPGPIDNSGLLKDGDAQSLKEHLIDELDYILLPTEGWNKLVSWYTLMEGQEPIARKVVEQGMFVKHCKVEVYLTELKLCENGNMNNVVTRRFSKADTIDTIEKEIRKIFSIPDEKETRLWNKYMSNTFEPLNKPDSTIQDAGLYQGQVLVIEQKNEDGTWPRGPSTPKSPGASNFSTLPKISPSSLSNNYNNMNNRNVKNSNYCLPSYTAYKNYDYSEPGRNNEQPGLCGLSNLGNTCFMNSAIQCLSNTPPLTEYFLNDKYQEELNFDNPLGMRGEIAKSYAELIKQMWSGKFSYVTPRAFKTQVGRFAPQFSGYQQQDCQELLAFLLDGLHEDLNRIRKKPYIQLKDADGRPDKVVAEEAWENHLKRNDSIIVDIFHGLFKSTLVCPECAKISVTFDPFCYLTLPLPMKKERTLEVYLVRMDPLTKPMQYKVVVPKIGNILDLCTALSALSGIPADKMIVTDIYNHRFHRIFAMDENLSSIMERDDIYVFEININRTEDTEHVIIPVCLREKFRHSSYTHHTGSSLFGQPFLMAVPRNNTEDKLYNLLLLRMCRYVKISTETEETEGSLHCCKDQNINGNGPNGIHEEGSPSEMETDEPDDESSQDQELPSENENSQSEDSVGGDNDSENGLCTEDTCKGQLTGHKKRLFTFQFNNLGNTDINYIKDDTRHIRFDDRQLRLDERSFLALDWDPDLKKRYFDENAAEDFEKHESVEYKPPKKPFVKLKDCIELFTTKEKLGAEDPWYCPNCKEHQQATKKLDLWSLPPVLVVHLKRFSYSRYMRDKLDTLVDFPINDLDMSEFLINPNAGPCRYNLIAVSNHYGGMGGGHYTAFAKNKDDGKWYYFDDSSVSTASEDQIVSKAAYVLFYQRQDTFSGTGFFPLDRETKGASAATGIPLESDEDSNDNDNDIENENCMHTN | –
5 | binds | HK2 (enzyme, UniProt P52789 1-917) MIASHLLAYFFTELNHDQVQKVDQYLYHMRLSDETLLEISKRFRKEMEKGLGATTHPTAAVKMLPTFVRSTPDGTEHGEFLALDLGGTNFRVLWVKVTDNGLQKVEMENQIYAIPEDIMRGSGTQLFDHIAECLANFMDKLQIKDKKLPLGFTFSFPCHQTKLDESFLVSWTKGFKSSGVEGRDVVALIRKAIQRRGDFDIDIVAVVNDTVGTMMTCGYDDHNCEIGLIVGTGSNACYMEEMRHIDMVEGDEGRMCINMEWGAFGDDGSLNDIRTEFDQEIDMGSLNPGKQLFEKMISGMYMGELVRLILVKMAKEELLFGGKLSPELLNTGRFETKDISDIEGEKDGIRKAREVLMRLGLDPTQEDCVATHRICQIVSTRSASLCAATLAAVLQRIKENKGEERLRSTIGVDGSVYKKHPHFAKRLHKTVRRLVPGCDVRFLRSEDGSGKGAAMVTAVAYRLADQHRARQKTLEHLQLSHDQLLEVKRRMKVEMERGLSKETHASAPVKMLPTYVCATPDGTEKGDFLALDLGGTNFRVLLVRVRNGKWGGVEMHNKIYAIPQEVMHGTGDELFDHIVQCIADFLEYMGMKGVSLPLGFTFSFPCQQNSLDESILLKWTKGFKASGCEGEDVVTLLKEAIHRREEFDLDVVAVVNDTVGTMMTCGFEDPHCEVGLIVGTGSNACYMEEMRNVELVEGEEGRMCVNMEWGAFGDNGCLDDFRTEFDVAVDELSLNPGKQRFEKMISGMYLGEIVRNILIDFTKRGLLFRGRISERLKTRGIFETKFLSQIESDCLALLQVRAILQHLGLESTCDDSIIVKEVCTVVARRAAQLCGAGMAAVVDRIRENRGLDALKVTVGVDGTLYKLHPHFAKVMHETVKDLAPKCDVSFLQSEDGSGKGAALITAVACRIREAGQR | –
